Reference: article PMC2681257
No constants are given. Whether binding was seen depends on the method and setting. In cells and extracts the contact can be indirect. Binding calls can cover weak binding; strength is not graded here.

Protein sequences, listed by entry. Tags and fused reporters are not part of them. Lines headed by an entry give the natural chain unless they say otherwise; changes in a name come on top.
UniProt Q8C6B2: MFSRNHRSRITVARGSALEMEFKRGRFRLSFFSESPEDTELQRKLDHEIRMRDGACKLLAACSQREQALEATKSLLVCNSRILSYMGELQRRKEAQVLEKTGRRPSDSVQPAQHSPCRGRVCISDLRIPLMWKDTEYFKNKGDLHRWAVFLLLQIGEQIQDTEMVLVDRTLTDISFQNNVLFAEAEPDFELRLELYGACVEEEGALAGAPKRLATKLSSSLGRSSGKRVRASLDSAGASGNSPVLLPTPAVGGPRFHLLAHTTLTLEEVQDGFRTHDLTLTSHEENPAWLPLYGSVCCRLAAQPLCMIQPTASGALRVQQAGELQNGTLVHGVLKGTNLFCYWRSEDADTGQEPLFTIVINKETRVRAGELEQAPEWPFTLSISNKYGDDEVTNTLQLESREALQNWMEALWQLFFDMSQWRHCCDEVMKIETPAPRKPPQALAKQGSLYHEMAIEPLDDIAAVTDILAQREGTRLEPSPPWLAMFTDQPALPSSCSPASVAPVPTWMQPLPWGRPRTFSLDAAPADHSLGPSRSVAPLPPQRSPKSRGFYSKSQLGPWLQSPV
UniProt P61586: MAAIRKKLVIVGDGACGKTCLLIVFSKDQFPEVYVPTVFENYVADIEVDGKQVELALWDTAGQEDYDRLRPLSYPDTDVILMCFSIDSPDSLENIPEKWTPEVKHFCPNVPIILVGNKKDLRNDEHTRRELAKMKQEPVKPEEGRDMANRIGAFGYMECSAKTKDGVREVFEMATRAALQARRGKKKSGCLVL

Biological target: glutathione-S-transferase: rhotekin Rho-binding domain fusion protein (UniProt Q8C6B2)
Assay: pull-down; Rho pulldown assay: 30 μg GST-RBD preloaded on Glutathione-Sepharose 4B beads, 600 μl cell lysate (HEK 293 lines or 1° h.AoSMCs, serum starved, treated with vehicle or U46619, with or without Cicaprost, SIN-1, FK409, BW245C, siRNA or dominant negative Gα); immunoblot with anti-RhoA; only the target purified

- binding: binds
Substance: RhoA (active, GTP-bound) (from UniProt P61586 1-193)
